This experiment deals with Bcl-2-associated athanogene 3 (BAG3), endogenous in iPSC-derived astrocytes (human (endogenous in iPSC-derived astrocytes)) (UniProt O95817). Description: affinity purification with mass spectrometry.

Amino acid sequences for entries named in this document (tags omitted).
UniProt O95817: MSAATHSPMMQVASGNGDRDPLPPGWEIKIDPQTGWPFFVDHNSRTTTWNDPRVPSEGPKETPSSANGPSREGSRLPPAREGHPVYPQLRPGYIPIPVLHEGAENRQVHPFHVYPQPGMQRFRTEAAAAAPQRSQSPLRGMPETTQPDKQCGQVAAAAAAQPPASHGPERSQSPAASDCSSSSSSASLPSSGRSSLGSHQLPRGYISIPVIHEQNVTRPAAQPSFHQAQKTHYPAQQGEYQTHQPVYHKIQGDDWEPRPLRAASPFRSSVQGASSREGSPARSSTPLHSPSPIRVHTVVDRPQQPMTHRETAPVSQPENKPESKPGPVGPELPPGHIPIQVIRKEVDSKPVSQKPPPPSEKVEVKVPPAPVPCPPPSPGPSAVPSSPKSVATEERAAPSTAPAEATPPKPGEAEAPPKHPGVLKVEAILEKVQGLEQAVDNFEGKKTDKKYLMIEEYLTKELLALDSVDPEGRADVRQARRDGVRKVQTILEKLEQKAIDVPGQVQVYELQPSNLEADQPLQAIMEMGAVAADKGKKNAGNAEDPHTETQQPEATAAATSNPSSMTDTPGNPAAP
UniProt Q16401: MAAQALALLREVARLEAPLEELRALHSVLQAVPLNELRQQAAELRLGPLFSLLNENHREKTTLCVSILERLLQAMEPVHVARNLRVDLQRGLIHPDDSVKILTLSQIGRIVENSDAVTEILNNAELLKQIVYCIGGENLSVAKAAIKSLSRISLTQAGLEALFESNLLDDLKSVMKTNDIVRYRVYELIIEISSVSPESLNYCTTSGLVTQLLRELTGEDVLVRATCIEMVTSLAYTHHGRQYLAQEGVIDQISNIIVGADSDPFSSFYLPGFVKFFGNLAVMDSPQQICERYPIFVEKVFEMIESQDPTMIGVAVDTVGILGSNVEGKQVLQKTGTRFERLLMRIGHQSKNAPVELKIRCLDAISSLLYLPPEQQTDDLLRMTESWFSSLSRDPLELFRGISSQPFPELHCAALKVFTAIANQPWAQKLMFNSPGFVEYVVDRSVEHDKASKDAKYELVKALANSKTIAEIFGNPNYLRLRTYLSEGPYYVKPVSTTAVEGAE

From article doi:10.1101/2025.09.20.677505 come the findings set out here.

Results are given in words; binding and its absence hold for the method and conditions named. In cells and extracts the contact can be indirect. A yes stands for co-enrichment or nearness to the bait. Other partners may have been found.

As to “PSMD5, proteasome regulator, endogenous in iPSC-derived astrocytes (from UniProt Q16401 1-504)”, the binding result is reported as “binds”.

B1: PSMF1, proteasome regulator, endogenous in iPSC-derived astrocytes (protein, UniProt Q92530 1-271)
chain: MAGLEVLFASAAPAITCRQDALVCFLHWEVVTHGYFGLGVGDQPGPNDKKSELLPAGWNNNKDLYVLRYEYKDGSRKLLVKAITVESSMILNVLEYGSQQVADLTLNLDDYIDAEHLGDFHRTYKNSEELRSRIVSGIITPIHEQWEKANVSSPHREFPPATAREVDPLRIPPHHPHTSRQPPWCDPLGPFVVGGEDLDPFGPRRGGMIVDPLRSGFPRALIDPSSGLPNRLPPGAVPPGARFDPFGPIGTSPPGPNPDHLPPPGYDDMYL
For B1, the binding result is “binds”.

B2: HSPB8, endogenous in iPSC-derived astrocytes (protein, UniProt Q9UJY1 1-196)
chain: MADGQMPFSCHYPSRLRRDPFRDSPLSSRLLDDGFGMDPFPDDLTASWPDWALPRLSSAWPGTLRSGMVPRGPTATARFGVPAEGRTPPPFPGEPWKVCVNVHSFKPEELMVKTKDGYVEVSGKHEEKQQEGGIVSKNFTKKIQLPAEVDPVTVFASLSPEGLLIIEAPQVPPYSTFGESSFNNELPQDSQEVTCT
For the molecule B2, the binding result is reported as “binds”.
